Laboratory results reported in the supplement of paper PMC10689618.
Structures can show the parent of a compound that is named as a salt. The list shows a part of the results. Many values rest on one well or one pass, so single values are uncertain.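 Primary human fetal astrocytes engulfed labelled rat cortical synaptosomes, measured as a red/green ratio corrected for calcein live-cell signal and scaled to the plate median. Toxicity meant calcein falling over 30%; decreased phagocytosis meant below 70% of median above 5 µM.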

What was measured:
Human fetal astrocytes [1] = experiment: loss of total cells relative to no-compound high-control median (toxicity); higher = more toxic (fewer cells); details: 24 h
Human fetal astrocytes [2] = experiment: synaptosome phagocytosis (pHrodo/calcein intensity ratio) relative to plate median of data wells; higher = more phagocytosis; details: 24 h

SMILES | loss of total cells (Human fetal astrocytes [1]; 1.39 µM) | loss of total cells (Human fetal astrocytes [1]; 2.78 µM) | loss of total cells (Human fetal astrocytes [1]; 5.56 µM) | loss of total cells (Human fetal astrocytes [1]; 11.11 µM) | loss of total cells (Human fetal astrocytes [1]; 22.22 µM) | synaptosome phagocytosis (Human fetal astrocytes [2]; 1.39 µM) | synaptosome phagocytosis (Human fetal astrocytes [2]; 2.78 µM) | synaptosome phagocytosis (Human fetal astrocytes [2]; 5.56 µM) | synaptosome phagocytosis (Human fetal astrocytes [2]; 11.11 µM) | synaptosome phagocytosis (Human fetal astrocytes [2]; 22.22 µM)
COc1cc(OC)c2c(OC)c(-c3ccc4c(c3)OCO4)c(=O)oc2c1 | -24.6% | 3.2% | -2.2% | 11.5% | 11.1% | 121% | 96.2% | 94.1% | 106% | 111%
COc1ccc(-c2cc(=O)c3c(OC(C)=O)cc(OC(C)=O)cc3o2)cc1 | 25.7% | -0.7% | -12.2% | 41.9% | 10% | 116% | 75.9% | 78.4% | 132% | 130%
CC1(C)CCC[C@]2(C)[C@@H]3[C@H]1[C@@H](O)[C@@]2(C)C[C@H]3O | -9% | 0.4% | -2.9% | 9.5% | 4.4% | 118% | 102% | 120% | 94.9% | 136%
COc1cc2ccc(=O)oc2cc1O | 4.1% | 1.1% | 9.5% | 12.8% | 5.2% | 120% | 102% | 120% | 148% | 169%
CC(C)c1ccc2c(c1)CC[C@H]1[C@](C)(CN)CCC[C@]21C | -10.7% | -4% | -1.5% | 12.2% | 83.7% | 99.7% | 106% | 91.8% | 75.1% | 0%
COc1c2ccoc2cc2oc(=O)ccc12 | 7.6% | 18.4% | 17.4% | 6.3% | 1.5% | 123% | 111% | 110% | 70% | 79%
C=C1C2CCC3(C)C(c4ccoc4)OC(=O)CC13OC1CC(OC(C)=O)C(C)(C)C(CC(=O)OC)C12C (stereo not drawn) [3beta-ACETOXYDEOXYANGOLENSIC ACID, METHYL ESTER] | 7.6% | -10.6% | 35.9% | 11.6% | 6.3% | 97.2% | 93.8% | 130% | 96.1% | 104%
COc1cc(OC)c2c(=O)c(OC)c(-c3ccc(OC)c(OC)c3)oc2c1 | 15.5% | 11.2% | 5.1% | 5.4% | 11.4% | 112% | 133% | 81.2% | 113% | 142%
C[C@@H]1CC[C@@]2(OC1)O[C@H]1C[C@H]3[C@@H]4CC[C@H]5C[C@@H](O)CC[C@]5(C)[C@H]4CC[C@]3(C)[C@H]1[C@@H]2C | -33% | 3.3% | -12.2% | 2.6% | -1.9% | 98.3% | 115% | 81.9% | 124% | 111%
Oc1c(Cl)cc(Cl)cc1Sc1cc(Cl)cc(Cl)c1O | 0% | -8.8% | 2.1% | 12.5% | 38% | 110% | 94.9% | 103% | 97.5% | 54.8%
CC1(C)[C@@H](OC(=O)CCC(=O)O)CC[C@]2(C)[C@H]3C(=O)C=C4[C@@H]5C[C@@](C)(C(=O)O)CC[C@]5(C)CC[C@@]4(C)[C@]3(C)CC[C@@H]12 | -19.1% | 1.5% | 17.7% | 10.2% | -2.8% | 95.3% | 95.5% | 107% | 120% | 101%
C[C@@H]1CC[C@@]2(OC1)O[C@H]1C[C@H]3[C@@H]4CC[C@H]5C[C@@H](O)CC[C@]5(C)[C@H]4CC(=O)[C@]3(C)[C@H]1[C@@H]2C | -6.1% | 19.9% | -2.9% | -6.3% | 20.5% | 88.7% | 129% | 85.6% | 106% | 137%
CC[N+](C)(C)Cc1ccccc1Br | 25.8% | -19.8% | -1.2% | 40.3% | 2.8% | 116% | 89% | 93.9% | 124% | 124%
O=C(Nc1ccc(C(=O)O)c(O)c1)c1ccccc1 | 11.3% | -31.7% | 1.2% | 37.7% | -3.4% | 147% | 133% | 87.5% | 158% | 74.3%
CCC(C)C(NC)C(=O)O (stereo not given) | -2.5% | -8.3% | -4.4% | 13.5% | 12.6% | 104% | 94.4% | 111% | 89.6% | 124%
CCCCC1C(=O)N(c2ccccc2)N(c2ccc(O)cc2)C1=O (stereo not given) | 10% | 2.7% | 29.7% | 80.5% | 67.4% | 95.4% | 93.4% | 56.6% | 20.1% | 11.1%
CC(O)(P(=O)(O)O)P(=O)(O)O | -38.7% | -22.2% | -4.3% | -11.5% | -5.3% | 86.7% | 92.5% | 121% | 101% | 89%
COc1cc(C(C)=O)cc(OC)c1O | 16.2% | 15.5% | 8% | -0.4% | 7.6% | 64.4% | 148% | 132% | 116% | 111%
COc1cc(OC)c2c(=O)cc(-c3ccccc3)oc2c1 | -13.9% | 6.1% | -11.7% | -6.8% | -5.9% | 110% | 77.1% | 106% | 75.8% | 95.3%
CCN1CCCC1CNC(=O)c1cc(S(N)(=O)=O)ccc1OC (stereo not given) | 20.7% | -13.1% | 13.5% | 14.8% | 4% | 81% | 113% | 114% | 64.6% | 95.9%

SMILES | loss of total cells (Human fetal astrocytes [1]; 1.39 µM) | loss of total cells (Human fetal astrocytes [1]; 2.78 µM) | loss of total cells (Human fetal astrocytes [1]; 5.56 µM) | loss of total cells (Human fetal astrocytes [1]; 11.11 µM) | loss of total cells (Human fetal astrocytes [1]; 22.22 µM) | synaptosome phagocytosis (Human fetal astrocytes [2]; 1.39 µM) | synaptosome phagocytosis (Human fetal astrocytes [2]; 2.78 µM) | synaptosome phagocytosis (Human fetal astrocytes [2]; 5.56 µM) | synaptosome phagocytosis (Human fetal astrocytes [2]; 11.11 µM) | synaptosome phagocytosis (Human fetal astrocytes [2]; 22.22 µM)
CC1c2cccc(O)c2C(O)=C2C(=O)C3(O)C(O)=C(C(N)=O)C(=O)C(N(C)C)C3C(O)C21 (stereo not given) [Doxycycline hydrochloride] | -0.3% | -21.4% | 4.9% | -2.6% | -22.2% | 126% | 120% | 90.4% | 109% | 90.2%
COc1cc(O)c(C(=O)/C=C/c2ccc(OC)c(O)c2)c(OC)c1 | -13.1% | -15.5% | -11% | 19.6% | -1.5% | 103% | 80.3% | 77.1% | 104% | 110%
C[C@@]12CCc3occc3[C@H]1CC[C@@]13C[C@@H](CC[C@H]12)[C@@](O)(CO)C3 | -27% | 6.1% | -6.6% | 3.4% | -3% | 99.1% | 91.4% | 85.5% | 104% | 82.6%
CC(=O)[C@@]1(O)CC[C@H]2[C@@H]3C[C@H](C)C4=CC(=O)C=C[C@]4(C)[C@@]3(F)[C@@H](O)C[C@@]21C | -6.8% | -28.8% | -8.4% | -13% | 17.9% | 106% | 111% | 128% | 110% | 128%
COc1ccc(-c2oc3ccccc3c(=O)c2O)cc1OC | -14.8% | 1.1% | 5.1% | 25% | 17.8% | 79.4% | 93.2% | 106% | 117% | 97.4%
COc1ccc(C(C)=O)c(O)c1 | -22.1% | 6.1% | -11.7% | 12.8% | 2.2% | 86.3% | 120% | 82.1% | 118% | 124%
CC1(C)S[C@@H]2[C@H](NC(=O)[C@H](C(=O)O)c3ccsc3)C(=O)N2[C@H]1C(=O)O | -33.1% | -20.6% | -12.4% | 23.9% | -3.4% | 114% | 94.4% | 86.2% | 128% | 99.8%
CCOC(=O)NNc1nncc2ccccc12 | 4.7% | 16.2% | 7.2% | 16.3% | 22.7% | 108% | 113% | 105% | 135% | 101%
COc1cc(-c2coc3cc(OCc4ccccc4)c(OC)c(O)c3c2=O)cc(O)c1OC | 8.3% | 14% | 22.1% | 5.8% | 27% | 106% | 112% | 118% | 72.8% | 118%
COc1ccc([C@@H]2CC(=O)c3c(O)cc(O[C@@H]4O[C@H](CO[C@@H]5O[C@@H](C)[C@H](O)[C@@H](O)[C@H]5O)[C@@H](O)[C@H](O)[C@H]4O)cc3O2)cc1O | -4.9% | 4% | -10.3% | 22.3% | 0.7% | 120% | 88.1% | 119% | 95.4% | 126%
OCc1cccnc1 | -21.8% | -11.9% | 16.1% | 31.8% | 10.3% | 131% | 105% | 142% | 159% | 118%
COc1ccc2c3c1O[C@H]1C[C@@H](O)C=C[C@@]31CCN(C)C2 | -22.4% | -16.8% | 2.1% | -23.4% | 13.6% | 112% | 108% | 121% | 90.5% | 140%
O=C(O[C@@H]1Cc2c(O)cc(O)cc2O[C@@H]1c1cc(O)c(O)c(O)c1-c1c([C@H]2Oc3cc(O)cc(O)c3C[C@H]2OC(=O)c2cc(O)c(O)c(O)c2)cc(O)c(O)c1O)c1cc(O)c(O)c(O)c1 | 6.9% | 8% | 32.8% | 23.2% | 43.3% | 127% | 112% | 105% | 107% | 165%
O=C1C=CC(=C(c2ccc(O)cc2)c2ccc(O)cc2)C=C1 | 11.2% | 10.5% | 7.2% | 2.1% | 3.8% | 106% | 108% | 99.7% | 154% | 124%
CO/N=C1\CN(c2nc3c(cc2F)c(=O)c(C(=O)O)cn3C2CC2)CC1CN (stereo not given) | -15.8% | -17.4% | -17.7% | -38.3% | 15.9% | 97.3% | 106% | 89.5% | 113% | 108%
Clc1ccc(C(Cn2ccnc2)OCc2ccsc2Cl)c(Cl)c1 (stereo not given) | -25.8% | -52.4% | 3.1% | 35.1% | 44.5% | 122% | 78.1% | 115% | 96% | 71%
CN1CCCN=C1COC(=O)C(O)(c1ccccc1)C1CCCCC1 (stereo not given) | -19.9% | -21.6% | 2.1% | -3.9% | 11.3% | 97.3% | 113% | 88.6% | 126% | 103%
COc1cc(/C=C/C(=O)N2CCC=CC2=O)cc(OC)c1OC | 19.9% | 32.1% | 32.6% | 36.4% | 36.4% | 92% | 82.7% | 52% | 48.6% | 33.6%
CC(=O)c1ccc2c(c1)N(CCCN(C)C)c1ccccc1S2 | -35.5% | -30.2% | -7.5% | -12.1% | -0.9% | 106% | 108% | 90% | 67% | 92.4%
CC(=O)OCC(=O)[C@H]1CC[C@H]2[C@@H]3CCC4=CC(=O)CC[C@]4(C)[C@H]3CC[C@]12C | -15.8% | -7% | 2.1% | -25% | -4.5% | 107% | 96.6% | 107% | 129% | 108%

Molecules listed so far that have fluorine:
SMILES | loss of total cells (Human fetal astrocytes [1]; 1.39 µM) | loss of total cells (Human fetal astrocytes [1]; 2.78 µM) | loss of total cells (Human fetal astrocytes [1]; 5.56 µM) | loss of total cells (Human fetal astrocytes [1]; 11.11 µM) | loss of total cells (Human fetal astrocytes [1]; 22.22 µM) | synaptosome phagocytosis (Human fetal astrocytes [2]; 1.39 µM) | synaptosome phagocytosis (Human fetal astrocytes [2]; 2.78 µM) | synaptosome phagocytosis (Human fetal astrocytes [2]; 5.56 µM) | synaptosome phagocytosis (Human fetal astrocytes [2]; 11.11 µM) | synaptosome phagocytosis (Human fetal astrocytes [2]; 22.22 µM)
CC(=O)[C@@]1(O)CC[C@H]2[C@@H]3C[C@H](C)C4=CC(=O)C=C[C@]4(C)[C@@]3(F)[C@@H](O)C[C@@]21C | -6.8% | -28.8% | -8.4% | -13% | 17.9% | 106% | 111% | 128% | 110% | 128%
CO/N=C1\CN(c2nc3c(cc2F)c(=O)c(C(=O)O)cn3C2CC2)CC1CN (stereo not given) | -15.8% | -17.4% | -17.7% | -38.3% | 15.9% | 97.3% | 106% | 89.5% | 113% | 108%
